In PubChem BioAssay AID2685 (National Center for Advancing Translational Sciences (NCATS), 2010):
Some of the results follow. These are further read-outs of the screen, such as a control signal, another cell line or another target. No call is given for them. Compounds called inactive in the main read-out are mostly missing here. Words in brackets tell the shape of the fitted curve; partial curves, single points and poor fits give uncertain potencies.

Assay: qHTS Assay for Lipid Storage Modulators in Drosophila S3 Cells;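 as to cell number change: cells counted by Cell Tracker Red CMTPX staining in the red channel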
Details: BODIPY lipid droplet fluorescence, 18-24 h; for cell number change: measured here: cell count max response, cells fed with added oleic acid
How it was run: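 Drosophila S3 cells got compounds at several concentrations plus oleic acid (400 uM solution). Laser-scanning cytometry with 488 nm excitation read lipid droplets at 500-530 nm and cells at 575-640 nm. Percent activity was relative to 20 uM Triacsin C.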

[1] = measured here: cell number channel AC50, cells fed with added oleic acid
[2] = measured here: lipid fluorescence (Fed channel) AC50, cells fed with added oleic acid

| SMILES | cell number change [%] | AC50 [1] | AC50 [2] |
| --- | --- | --- | --- |
| CN(Cc1ccccc1)C(=O)c1[nH]cnc1C(=O)Nc1ccccc1 | -35.4 | 9.2 µM [falling, single point] |  |
| Cc1nn(CC(=O)NC2CCS(=O)(=O)C2)c(C)c1S(=O)(=O)N(C)C (stereo not drawn) | -0.722 |  | 29.1 µM [rising, single point] |
| O=C1/C(=C/c2ccc([N+](=O)[O-])cc2)C=C(c2ccccc2)N1c1ccc(O)cc1 | 2.34 |  |  |
| Cc1ccccc1C(=O)NC1CCN(Cc2nnnn2CCc2ccccc2)CC1 | 21 |  | 18.4 µM [rising, single point] |
| Cc1cnc(C(=O)Nc2cc(F)ccc2C)cn1 | 16.2 |  | 16.4 µM [rising, partial curve, poor fit] |
| CC(C)Oc1cccc(C(=O)Nc2ccc(CN3CCOCC3)cc2)c1 |  | 0.411 µM [rising, partial curve] |  |
| O=C1N(Cc2ccccc2)CCCC12CCCN(Cc1ccccc1)C2=O | 14 |  | 6.51 µM [rising, partial curve] |
| COC(=O)CCS(=O)(=O)c1ccc(NC(C)=O)cc1 | -70.9 | 16.4 µM [falling, single point] |  |
| COC(=O)C(Cc1c[nH]c2ccccc12)N1CCS(=O)(=O)CC1 (stereo not drawn) | 12.3 | 2.31 µM [rising, partial curve, poor fit] | 8.2 µM [rising, partial curve, poor fit] |
| O=C(Nc1cc(S(=O)(=O)N2CCCCC2)ccc1N1CCOCC1)c1cc(=O)[nH]c2ccccc12 | -14.3 |  | 8.2 µM [falling, partial curve] |
| COc1cc(C(=O)NCCCNc2ccc([N+](=O)[O-])cc2)cc(OC)c1OC | 20.3 |  | 0.184 µM [rising, full curve, poor fit] |
| Cc1cc(C(=O)NC2CCCCC2)c(C)o1 | -15.7 |  |  |
| CC(C)Cc1csc(NC(=O)c2ccccc2Cl)c1C(=O)O | -35.3 | 32.6 µM [falling, single point] | 29.1 µM [falling, single point] |
| COc1cc(C(=O)OCC(=O)Nc2cc(C)on2)ccc1OCc1ccccc1Cl | -43 | 29.1 µM [falling, single point] | 0.00517 µM [rising, full curve, poor fit] |
| COc1ccc(Oc2ccc(S(=O)(=O)N3CCCCC3)cc2S(=O)(=O)N2CCCCC2)cc1 | 28.9 |  | 8.2 µM [rising, partial curve, poor fit] |
| CCOc1ccc2[nH]c(C)c(CN3CCN(CC)CC3)c(=O)c2c1 | -57 | 0.326 µM [falling, full curve, poor fit] | 0.291 µM [falling, full curve] |
| CCOC(=O)c1c(C)[nH]c(C(=O)OCC(=O)N2CC(C)OC(C)C2)c1C (stereo not drawn) | 15.3 |  |  |
| COc1ccc(C(=O)Nc2ccc(C(=O)O)cc2NC(=O)c2ccc(OC)cc2)cc1 | 3.9 |  | 4.61 µM [rising, single point] |
| CNC(=O)C12CC3CC(C1)CC(c1ccc(C)cc1)(C3)C2 | -1.17 |  |  |
| CC(CCc1ccccc1)NC(=O)CSc1cccc[n+]1[O-] (stereo not drawn) | -12.7 |  | 2.59 µM [falling, single point] |
| CCc1noc(C)c1C(=O)N1CCC(CCC(=O)Nc2cccc(C)c2)CC1 | -0.283 |  | 0.58 µM [falling, single point] |

| SMILES | cell number change [%] | AC50 [1] | AC50 [2] |
| --- | --- | --- | --- |
| CCn1c(P(C)(=O)O)nc2cc(NC(=O)c3ccccc3Cl)ccc21 | 15.8 |  |  |
| O=C(O)CCC(=O)Nc1cccc(C(=O)Nc2ccc(Br)cc2)c1 | -19.2 |  |  |
| Cc1ccc(OCC(O)CNS(=O)(=O)c2ccccc2C(=O)O)cc1 (stereo not drawn) | -1.52 |  | 23.1 µM [rising, single point] |
| Cc1ccc(C(=O)CSc2ccccn2)cc1 | -9.64 |  | 3.66 µM [rising, single point] |
| O=C(NCc1ccccc1)C1C(=O)N(Cc2ccccc2)C(=O)C1C1(O)CCCC1 (stereo not drawn) | -1.4 |  |  |
| CCCc1nnc(NC(=O)CCC(=O)N2CCN(Cc3ccc(F)cc3)CC2)s1 | 3.4 |  | 29.1 µM [falling, single point] |
| CC(=O)Nc1ccc(NC(=O)c2ccc(CN3CCc4ccccc4C3)cc2)cc1 |  | 0.517 µM [falling, partial curve, poor fit] |  |
| COc1cccc(N2CCN(C(=O)C3CCN(S(=O)(=O)c4ccc5c(c4)CC(C)N5C(C)=O)CC3)CC2)c1 (stereo not drawn) | -21.1 |  |  |
| c1ccc2c(c1)[nH]c1nc3nncn3nc12 | 7.26 |  | 0.058 µM [falling, full curve, poor fit] |
| Cn1c(=O)c2c(SCC(=O)NC3CCCC3)nc(CC(C)(C)C)nc2n(C)c1=O | 1.22 |  | 4.11 µM [rising, partial curve] |
| CCCCn1c(SCc2c(C)noc2C)nc2cc(S(N)(=O)=O)ccc21 | 95 | 29.1 µM [rising, single point] | 23.1 µM [rising, partial curve] |
| Cc1ccc(S(=O)(=O)N(C)CC(=O)Nc2ccncc2)cc1 |  | 6.51 µM [falling, single point] |  |
| OCCn1nc2c3ccccc3nc-2n(-c2ccccc2)c1=S | 20.9 |  | 8.2 µM [rising, partial curve] |
| Cc1ccc(NC2=C(NC(=O)c3ccccc3)C(=O)c3ccccc3C2=O)cc1Cl | -72.1 | 14.6 µM [falling, partial curve] | 11.6 µM [falling, partial curve] |
| CC(=O)c1cccc(S(=O)(=O)N(C)C2CCN(C)CC2)c1 | -24.7 |  | 6.51 µM [falling, partial curve] |
| CCCN1CCC(=O)N([C@H](CSc2ccccc2)CC(C)C)CC1 | 39.2 |  |  |
| CC1(C)CC2CC(C)(CN2/C=N/c2sc3c(c2C#N)CC(C)(C)NC3(C)C)C1 (stereo not drawn) | -25.7 |  | 7.31 µM [falling, partial curve] |
| O=C(Nc1ccccn1)c1cccs1 | -83.9 | 23.1 µM [falling, partial curve] |  |
| CN(C)c1ccc(N/C=C/C(=O)c2ccco2)cc1 |  |  | 0.58 µM [falling, single point] |
| COc1cc(CNCc2ccccc2Cl)ccc1OCC(=O)NC1CCCCC1 | 22.7 |  |  |
| CC1CC(C)CN(S(=O)(=O)c2ccc(F)c(C(=O)Nc3ccc(Cl)cc3F)c2)C1 (stereo not drawn) | 21.9 |  | 6.51 µM [rising, single point] |

Single records, from the list above.
Cc1ccc(S(=O)(=O)N(C)CC(=O)Nc2ccncc2)cc1 in the list: AC50 [1]: 6.51 µM [falling, single point]
O=C(NCc1ccccc1)C1C(=O)N(Cc2ccccc2)C(=O)C1C1(O)CCCC1 (stereo not drawn) in the list: cell number change [%]: -1.4

Next part:

| SMILES | cell number change [%] | AC50 [1] | AC50 [2] |
| --- | --- | --- | --- |
| O=C(CN1C(=O)NC(Cc2ccccc2)C1=O)Nc1ccc(F)c(Cl)c1 (stereo not drawn) | 23.8 |  | 0.00517 µM [rising, full curve, poor fit] |
| Cn1c(SCc2nc3ccccc3[nH]2)nnc1-c1ccccn1 | -12.4 |  |  |
| CCOc1ccc(NS(=O)(=O)c2ccc3[nH]cc(C(=O)NCCOC)c(=O)c3c2)cc1 |  |  | 0.651 µM [falling, single point] |
| O=C(Nc1nccs1)c1cccc(N2C(=O)c3cccc4c([N+](=O)[O-])ccc(c34)C2=O)c1 | -24.9 | 3.66 µM [falling, full curve, poor fit] | 29.1 µM [falling, single point] |
| CC(C)c1ccc(NC2CCCN(C(=O)c3ccsc3)C2)cc1 (stereo not drawn) | 4.86 |  | 29.1 µM [falling, single point] |
| O=C(Nc1ncccc1Cl)c1ccccc1F | 10.2 |  | 0.517 µM [falling, full curve, poor fit] |
| CCOC(=O)C1CCN(C(=O)CCc2c(C)nc3cc(-c4ccccc4)nn3c2C)CC1 | 13.6 |  |  |
| Cc1sc(NC(=O)c2cccc([N+](=O)[O-])c2)c(C(N)=O)c1-c1ccc(C(C)(C)C)cc1 | 1.76 |  | 29.1 µM [falling, partial curve, poor fit] |
| O=C(NCCc1ccco1)C(=O)NCC1OCCCN1S(=O)(=O)c1cc(F)ccc1F (stereo not drawn) | 8.8 |  | 29.1 µM [rising, single point] |
| CC(=O)Nc1ccn(-c2ccccc2)n1 | -31.6 | 11.6 µM [falling, partial curve, poor fit] | 29.1 µM [falling, single point] |
| CSc1nc(Oc2ccc(Cl)cc2)c2sccc2n1 | 50.5 | 23.1 µM [rising, single point] |  |
| CCC(C)(C)n1nnnc1C(c1cc2ccc(C)cc2[nH]c1=O)N(Cc1cccnc1)Cc1ccco1 (stereo not drawn) |  |  | 0.58 µM [falling, single point] |
| Cc1ccc(-n2c(C)nn(Cc3ccc([N+](=O)[O-])cc3)c2=O)cc1 | -0.865 | 0.631 µM [falling, single point] | 0.316 µM [falling, partial curve, poor fit] |
| CCc1nnc(NC(=O)CSc2nc3ccc(OC)cc3[nH]2)s1 | 5.8 | 6.51 µM [falling, single point] | 4.61 µM [falling, single point] |
| CCCCc1ccc(-c2ccc(Br)cc2O)nc1 | 28.3 | 0.731 µM [falling, full curve] |  |
| Cc1cc2ncn(CC3CC3(Cl)Cl)c2cc1C (stereo not drawn) | 18.4 |  | 2.31 µM [rising, single point] |
| CCCCCN(C(=O)CCC(=O)OCC(=O)N(C)C1CCCCC1)c1c(N)n(CCCC)c(=O)[nH]c1=O | 18.5 |  |  |
| CCOC(=O)C1=C(O)/C(=C/c2ccc(-c3ccccc3C(=O)O)o2)SC1=Nc1ccc(C)cc1 | -4.54 |  | 18.4 µM [falling, single point] |
| Cc1nnc(N2CCN(Cc3ccccc3)CC2)[nH]c1=O | -4.26 |  | 5.8 µM [falling, full curve, poor fit] |
